This is an account of results in paper PMC9031500.

These are yes or no findings as the source states them, for the method shown. Binding seen in cells or lysates may run through a third protein. Some binding calls cover weakened binding; strength is not graded here.

The target in test [1] is T1, silent mating type information regulation 2 homolog 1 (SIRT1) (mouse (endogenous in hypothalamus of B6SJL mice)) (UniProt Q923E4).
T1 sequence: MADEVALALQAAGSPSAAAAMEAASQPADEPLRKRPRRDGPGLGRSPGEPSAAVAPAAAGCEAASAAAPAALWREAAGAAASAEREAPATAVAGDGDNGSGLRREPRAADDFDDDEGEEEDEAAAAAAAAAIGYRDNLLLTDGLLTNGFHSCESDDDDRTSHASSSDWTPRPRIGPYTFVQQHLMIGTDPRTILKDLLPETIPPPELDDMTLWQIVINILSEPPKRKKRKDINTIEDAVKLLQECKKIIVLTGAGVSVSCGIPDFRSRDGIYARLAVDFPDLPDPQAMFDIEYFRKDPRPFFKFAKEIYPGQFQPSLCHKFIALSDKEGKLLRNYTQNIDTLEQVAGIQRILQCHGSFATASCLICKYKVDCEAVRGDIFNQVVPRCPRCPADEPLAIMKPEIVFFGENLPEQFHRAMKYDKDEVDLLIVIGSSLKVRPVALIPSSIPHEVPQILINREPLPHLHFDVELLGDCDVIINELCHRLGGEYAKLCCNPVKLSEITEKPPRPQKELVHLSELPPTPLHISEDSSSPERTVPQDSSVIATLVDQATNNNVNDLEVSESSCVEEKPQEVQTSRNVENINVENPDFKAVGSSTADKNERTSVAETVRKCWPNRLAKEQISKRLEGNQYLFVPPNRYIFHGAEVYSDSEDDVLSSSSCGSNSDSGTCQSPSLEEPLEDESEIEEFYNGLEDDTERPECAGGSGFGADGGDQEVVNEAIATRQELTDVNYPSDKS
Briefly: co-IP; hypothalamus protein extracts of SOD1G93A transgenic mice at 90 days (presymptomatic) and 120 days (symptomatic); precleared with normal mouse IgG and protein A/G agarose; IP with anti-SIRT1 or anti-orexin-prepro overnight at 4 °C; washed with RIPA buffer; western blot. A general note: In western blotting, separated proteins are transferred to a membrane and probed.

For test [2], the target named is T1, silent mating type information regulation 2 homolog 1 (SIRT1) (mouse (endogenous in hypothalamus of B6SJL mice)). Briefly: condition: only in hypothalamus extracts of nontransgenic littermate controls; co-IP; hypothalamus protein extracts of nontransgenic littermate control mice at 90 and 120 days; precleared with normal mouse IgG and protein A/G agarose; IP with anti-SIRT1 or anti-orexin-prepro overnight at 4 °C; washed with RIPA buffer; western blot.

B1: prepro-orexin (protein, UniProt O55241 33-130)
chain: QPLPDCCRQKTCSCRLYELLHGAGNHAAGILTLGKRRPGPPGLQGRLQRLLQANGNHAAGILTMGRRAGAELEPHPCSGRGCPTVTTTALAPRGGSGV
Regarding B1, the binding result in test [1] is “binds”; in test [2], “no binding”.
